Results are given in words; binding and its absence hold for the method and conditions named. In cells and extracts the contact can be indirect. Some results given as binding are weak or reduced against the parent protein; the word gives no strength.
Biological target: T1, wild-type human α4 integrin, full length (human) (UniProt P13612)
T1 sequence (chain, biotin (cell surface molecules labelled with NHS-LC-Biotin)): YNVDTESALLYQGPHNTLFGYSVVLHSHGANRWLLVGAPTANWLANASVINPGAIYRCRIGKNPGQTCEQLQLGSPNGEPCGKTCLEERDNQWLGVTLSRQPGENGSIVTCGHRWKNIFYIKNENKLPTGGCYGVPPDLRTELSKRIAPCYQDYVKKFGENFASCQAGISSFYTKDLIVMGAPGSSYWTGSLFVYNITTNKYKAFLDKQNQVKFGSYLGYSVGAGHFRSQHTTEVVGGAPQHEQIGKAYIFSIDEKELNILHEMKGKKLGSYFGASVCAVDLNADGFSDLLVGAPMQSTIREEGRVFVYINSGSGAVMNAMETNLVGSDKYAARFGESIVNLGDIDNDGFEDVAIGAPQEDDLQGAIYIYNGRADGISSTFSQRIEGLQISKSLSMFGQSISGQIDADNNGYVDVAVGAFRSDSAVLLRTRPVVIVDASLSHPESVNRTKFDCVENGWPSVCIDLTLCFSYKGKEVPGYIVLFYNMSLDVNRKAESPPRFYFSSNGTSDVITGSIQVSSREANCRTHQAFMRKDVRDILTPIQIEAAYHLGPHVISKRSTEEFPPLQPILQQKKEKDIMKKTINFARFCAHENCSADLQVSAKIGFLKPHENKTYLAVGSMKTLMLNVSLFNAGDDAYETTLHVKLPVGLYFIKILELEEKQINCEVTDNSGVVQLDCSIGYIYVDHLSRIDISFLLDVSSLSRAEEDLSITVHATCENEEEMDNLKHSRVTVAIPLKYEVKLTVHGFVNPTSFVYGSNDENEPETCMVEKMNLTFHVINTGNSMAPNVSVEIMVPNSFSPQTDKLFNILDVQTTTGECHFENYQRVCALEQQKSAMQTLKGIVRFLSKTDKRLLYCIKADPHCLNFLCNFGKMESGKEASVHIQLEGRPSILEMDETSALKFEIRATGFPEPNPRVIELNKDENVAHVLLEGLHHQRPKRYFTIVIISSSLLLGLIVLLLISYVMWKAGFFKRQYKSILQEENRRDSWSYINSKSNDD
Experiment: co-IP; lysates of biotin-labelled PC12 cells co-expressing wild-type α4 and FLAG-paxillin constructs; immunoprecipitated with anti-α4, re-immunoprecipitated with anti-FLAG, western blot with anti-paxillin antibody

Amino acid sequences for entries named in this document (tags omitted). A change or cut given only in a name is not applied to a line headed by its entry. Chains listed by the source or under a name are the forms on record and can include a tag or linker.
UniProt P49024: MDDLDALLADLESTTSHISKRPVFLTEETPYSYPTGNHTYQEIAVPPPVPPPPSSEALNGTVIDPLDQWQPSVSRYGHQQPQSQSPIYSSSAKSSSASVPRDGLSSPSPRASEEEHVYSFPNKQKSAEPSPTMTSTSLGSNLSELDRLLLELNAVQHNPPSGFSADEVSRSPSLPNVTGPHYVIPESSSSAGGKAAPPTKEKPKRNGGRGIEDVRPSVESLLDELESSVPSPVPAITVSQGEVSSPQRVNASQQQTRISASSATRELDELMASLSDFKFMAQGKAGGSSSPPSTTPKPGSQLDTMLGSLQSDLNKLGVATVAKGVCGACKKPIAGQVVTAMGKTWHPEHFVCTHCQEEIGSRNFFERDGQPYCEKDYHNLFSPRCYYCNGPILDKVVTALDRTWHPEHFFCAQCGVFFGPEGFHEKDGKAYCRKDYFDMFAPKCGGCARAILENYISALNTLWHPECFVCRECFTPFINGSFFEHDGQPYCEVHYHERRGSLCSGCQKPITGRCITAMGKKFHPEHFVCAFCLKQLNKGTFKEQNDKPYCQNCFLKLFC
FLAG-tagged chicken paxillin with three Y to F substitutions at Y31, Y118 and Y182 (P49024, form named): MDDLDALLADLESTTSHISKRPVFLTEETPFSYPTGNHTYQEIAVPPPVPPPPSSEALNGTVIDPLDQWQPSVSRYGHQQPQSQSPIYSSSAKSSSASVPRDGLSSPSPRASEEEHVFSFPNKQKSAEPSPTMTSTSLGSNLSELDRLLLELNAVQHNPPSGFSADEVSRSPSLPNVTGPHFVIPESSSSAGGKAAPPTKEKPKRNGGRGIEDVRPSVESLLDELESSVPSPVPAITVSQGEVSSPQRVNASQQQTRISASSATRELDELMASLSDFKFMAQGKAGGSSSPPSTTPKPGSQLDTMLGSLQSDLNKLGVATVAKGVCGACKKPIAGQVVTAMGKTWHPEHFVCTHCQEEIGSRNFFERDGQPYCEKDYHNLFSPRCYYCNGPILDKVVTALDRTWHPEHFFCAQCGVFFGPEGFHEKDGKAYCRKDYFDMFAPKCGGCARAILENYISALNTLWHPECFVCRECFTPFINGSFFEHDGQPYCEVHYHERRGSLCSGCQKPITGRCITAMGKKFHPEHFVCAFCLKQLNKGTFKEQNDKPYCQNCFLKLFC

| Substance | binding |
| --- | --- |
| FLAG-tagged chicken paxillin with three Y to F substitutions at Y31, Y118 and Y182 (from UniProt P49024 1-559) | binds |
| FLAG-tagged wild-type chicken paxillin (from UniProt P49024 1-559) | binds |
